Measurements reported in PubChem BioAssay AID493246 (Drosophila RNAi Screening Center, 2011).

Aim: 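Genome-wide search for dsRNAs that reduce cell number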 (primary screen)
Cells: Drosophila Kc and S2R+ cells
Reagents: long dsRNA against Drosophila genes
Measurement: 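Cell number per well after knock-down, printed as raw plate values; calls were based on per-plate z-scores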
Reading the numbers: Kc cell number and S2R+ cell number: higher = more cells remaining
Active means: 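Counted as a hit if cell number falls by a z-score of at least 3 within its plate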
In all, the deposit lists about 21,000 reagents; shown is an unselected part of those that have a named target and a result. Over the whole deposit, 429 (2%) are marked active. 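Values are raw and not normalised between plates; calls rest on per-plate z-scores that were not deposited.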 Unmarked entries are inactive. Reagents against one gene are numbered here. Not given: the amount of reagent, the time to read-out.

With Arf4 (ADP ribosylation factor 4), what does the deposit list?
Kc cell number, rep 1: 1.62e6; Kc cell number, rep 2: 1.57e6; S2R+ cell number, rep 1: 9.44e5; S2R+ cell number, rep 2: 1.07e6

For Mys45A (Mystery 45A), what was measured?
Kc cell number, rep 1: 1.13e6; Kc cell number, rep 2: 1.24e6; S2R+ cell number, rep 1: 9.72e5; S2R+ cell number, rep 2: 1.08e6

How did the screen score Msh6?
Kc cell number, rep 1: 1.32e6; Kc cell number, rep 2: 1.42e6; S2R+ cell number, rep 1: 1.33e6; S2R+ cell number, rep 2: 1.24e6

For CG8993, how do the results read?
Kc cell number, rep 1: 1.49e6; Kc cell number, rep 2: 1.37e6; S2R+ cell number, rep 1: 1.02e6; S2R+ cell number, rep 2: 1.17e6

How did the screen score CG34229?
Kc cell number, rep 1: 1.63e6; Kc cell number, rep 2: 1.61e6; S2R+ cell number, rep 1: 1.28e6; S2R+ cell number, rep 2: 1.41e6

What did the screen give for wuc (Wake-up-call)?
Kc cell number, rep 1: 1.58e6; Kc cell number, rep 2: 1.62e6; S2R+ cell number, rep 1: 1.31e6; S2R+ cell number, rep 2: 1.45e6

How did the screen score nht (no hitter)?
Kc cell number, rep 1: 1.31e6; Kc cell number, rep 2: 1.37e6; S2R+ cell number, rep 1: 9.78e5; S2R+ cell number, rep 2: 1.08e6

For Rab6, how do the results read?
Kc cell number, rep 1: 1.34e6; Kc cell number, rep 2: 1.39e6; S2R+ cell number, rep 1: 1.13e6; S2R+ cell number, rep 2: 1.20e6

Which result is listed for mthl2 (methuselah-like 2)?
Kc cell number, rep 1: 1.35e6; Kc cell number, rep 2: 1.32e6; S2R+ cell number, rep 1: 1.25e6; S2R+ cell number, rep 2: 1.29e6

With CG9445, what does the deposit list?
Kc cell number, rep 1: 1.63e6; Kc cell number, rep 2: 1.62e6; S2R+ cell number, rep 1: 1.27e6; S2R+ cell number, rep 2: 1.39e6

Which result is listed for CG17490 #1?
Kc cell number, rep 1: 5.90e5; S2R+ cell number, rep 1: 8.04e5

With CG17490 #2, what does the deposit list?
Kc cell number, rep 1: 1.49e6; Kc cell number, rep 2: 1.57e6; S2R+ cell number, rep 1: 1.21e6; S2R+ cell number, rep 2: 3.55e5

What is on record for dila (dilatory)?
Kc cell number, rep 1: 1.77e6; Kc cell number, rep 2: 1.82e6; S2R+ cell number, rep 1: 1.31e6; S2R+ cell number, rep 2: 1.49e6

For mtsh (mitoshell), how do the results read?
Kc cell number, rep 1: 1.57e6; Kc cell number, rep 2: 1.72e6; S2R+ cell number, rep 1: 1.29e6; S2R+ cell number, rep 2: 1.46e6

Targets listed so far whose gene name begins with C or c (5):
CG8993 | Kc cell number, rep 1: 1.49e6; Kc cell number, rep 2: 1.37e6; S2R+ cell number, rep 1: 1.02e6; S2R+ cell number, rep 2: 1.17e6
CG34229 | Kc cell number, rep 1: 1.63e6; Kc cell number, rep 2: 1.61e6; S2R+ cell number, rep 1: 1.28e6; S2R+ cell number, rep 2: 1.41e6
CG9445 | Kc cell number, rep 1: 1.63e6; Kc cell number, rep 2: 1.62e6; S2R+ cell number, rep 1: 1.27e6; S2R+ cell number, rep 2: 1.39e6
CG17490 #1 | Kc cell number, rep 1: 5.90e5; S2R+ cell number, rep 1: 8.04e5
CG17490 #2 | Kc cell number, rep 1: 1.49e6; Kc cell number, rep 2: 1.57e6; S2R+ cell number, rep 1: 1.21e6; S2R+ cell number, rep 2: 3.55e5
